Assay results taken from publication doi:10.1101/2023.08.10.552743.
No constants are given. Whether binding was seen depends on the method and setting. In cells and extracts the contact can be indirect. A yes stands for co-enrichment or nearness to the bait. Other partners may have been found.

The chains behind the UniProt entries cited, without tags or fusion partners.
UniProt Q5TA45: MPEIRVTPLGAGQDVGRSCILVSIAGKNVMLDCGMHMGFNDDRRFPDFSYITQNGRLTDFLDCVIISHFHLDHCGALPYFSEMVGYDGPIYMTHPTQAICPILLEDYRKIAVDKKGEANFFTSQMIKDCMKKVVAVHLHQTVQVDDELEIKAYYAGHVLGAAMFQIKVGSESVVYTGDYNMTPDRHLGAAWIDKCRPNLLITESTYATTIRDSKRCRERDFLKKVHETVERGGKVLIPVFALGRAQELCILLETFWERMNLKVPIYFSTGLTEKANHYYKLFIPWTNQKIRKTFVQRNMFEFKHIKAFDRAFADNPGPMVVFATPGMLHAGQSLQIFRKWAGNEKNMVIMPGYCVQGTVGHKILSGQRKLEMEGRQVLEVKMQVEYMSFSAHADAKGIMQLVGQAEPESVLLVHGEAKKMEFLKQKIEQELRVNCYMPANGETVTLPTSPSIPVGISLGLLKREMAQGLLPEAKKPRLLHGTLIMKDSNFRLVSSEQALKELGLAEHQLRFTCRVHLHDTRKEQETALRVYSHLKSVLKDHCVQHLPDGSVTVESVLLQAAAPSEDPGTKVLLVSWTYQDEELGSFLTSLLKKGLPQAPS

Target: Flag-INTS11 (human) (UniProt Q5TA45)
Experiment: affinity purification with mass spectrometry

- binding: binds
B1: BRAT1 (endogenous, HEK293T) (protein, UniProt Q6PJG6-1 1-821)
chain: MDPECAQLLPALCAVLVDPRQPVADDTCLEKLLDWFKTVTEGESSVVLLQEHPCLVELLSHVLKVQDLSSGVLSFSLRLAGTFAAQENCFQYLQQGELLPGLFGEPGPLGRATWAVPTVRSGWIQGLRSLAQHPSALRFLADHGAVDTIFSLQGDSSLFVASAASQLLVHVLALSMRGGAEGQPCLPGGDWPACAQKIMDHVEESLCSAATPKVTQALNVLTTTFGRCQSPWTEALWVRLSPRVACLLERDPIPAAHSFVDLLLCVARSPVFSSSDGSLWETVARALSCLGPTHMGPLALGILKLEHCPQALRTQAFQVLLQPLACVLKATVQAPGPPGLLDGTADDATTVDTLLASKSSCAGLLCRTLAHLEELQPLPQRPSPWPQASLLGATVTVLRLCDGSAAPASSVGGHLCGTLAGCVRVQRAALDFLGTLSQGTGPQELVTQALAVLLECLESPGSSPTVLKKAFQATLRWLLSSPKTPGCSDLGPLIPQFLRELFPVLQKRLCHPCWEVRDSALEFLTQLSRHWGGQADFRCALLASEVPQLALQLLQDPESYVRASAVTAMGQLSSQGLHAPTSPEHAEARQSLFLELLHILSVDSEGFPRRAVMQVFTEWLRDGHADAAQDTEQFVATVLQAASRDLDWEVRAQGLELALVFLGQTLGPPRTHCPYAVALPEVAPAQPLTEALRALCHVGLFDFAFCALFDCDRPVAQKSCDLLLFLRDKIASYSSLREARGSPNTASAEATLPRWRAGEQAQPPGDQEPEAVLAMLRSLDLEGLRSTLAESSDHVEKSPQSLLQDMLATGGFLQGDEADCY
